This is an account of results in PubChem BioAssay AID1508600 (Functional Genomics Laboratory (NCATS/FGL), 2020).

About 3,700 (7%) of roughly 53,000 sequences were called active.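 The calls were made as follows: active = gene knockdowns whose robust z-score for IL-1 alpha signal is at least 2 or at most -2, so actives lie on both sides; inactive = the rest.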 This is one part of the list.

The nature of this experiment: Components of the Cytosolic LPS Sensing Pathway: Gene Identification via Genome-wide siRNA Screen.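 Also: robust z of the log signal after scaling to non-targeting control siRNA wells of the plate.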 The settings on record: RAW264.7 macrophages, IL-1a HTRF, actives lie on both sides, screened at 100 nM (by protocol), cells primed 5 h with Pam3CSK4 first. A digest of the protocol: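 Mouse macrophage line RAW264.7 is transfected with siRNA (100 nM final), grown 48h, primed with TLR ligand Pam3CSK4 5 h and given intracellular LipidA 24 h. IL-1a in supernatant is read by HTRF and viability by luminescence.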
Background: TR-FRET usually uses a lanthanide donor and a delayed reading to cut background.
With CCAUCACUACACGAAAUUGTT against Fgf12, the z-score is inactive: 0.176.

Consider GCUGCCUAUUUACUGAUCCTT against Chrm3, for which the z-score was inactive: -0.569.

On to GGUGAUGACGAAGGAAUCCTT against Zfpm2, for which the z-score was inactive: -1.51.

Turning to GGUCAUCCAGCUAUCUGAUTT against Zcchc7, the z-score is inactive: 0.192.

GCAUUAUACCUGUCAAGUUTT against Klk1b1: the z-score was inactive: 0.608.

For GCGCAACUCCAUGAGGAGATT against Kcnj8, the z-score was inactive: 1.2.

Consider UUGCAUUACGUGUGGUAUGTT against Mustn1, for which the z-score was inactive: 0.696.

As for CCAGGUGAAAACCAGGAUATT against Olfr205, the z-score was inactive: 0.925.

Turning to GCAAGAUCUGUAUGUCCGCTT against Ebf3, the z-score is inactive: 1.38.

Consider CCUGUCAAUGCAAGAAUGGTT against Nell1, for which the z-score was inactive: -0.368.

In the case of GGUUCUAGGACCUAUUUUGTT against Cep57, the z-score is inactive: 1.87.

GGAUAAUGUUGUCUGUCUATT against Nmd3: the z-score is inactive: -0.418.

On to GCCUUUUUGGAGAAUGAAUTT against Rhbdl1, for which the z-score was inactive: -0.33.

On to CAACUCUCUUGCUCAGACATT against Olfr814, for which the z-score is inactive: -0.268.

For the sequence GCGCAGGAUGAGAAGUUCUTT against Slc43a3, the z-score is active: 3.

With GGCAGAAGGCCAGUGGAUUTT against Tmem121b, the z-score was inactive: 1.21.

Take GGAGCACAGGUCUAUGAACTT against Neu4: the z-score was inactive: -0.757.

As for GGUGCUUUAAAGAAAAUGCTT against Msantd3, the z-score was inactive: -1.84.

As for GGAUCCUGAAACAGUUCAATT against Atm, the z-score was inactive: -0.218.

As to GGAAACGUAUUUAAAUCCATT against Fezf2, the z-score is inactive: -0.322.

On to GGGAAGUGAGACAUGCUGUTT against Patz1, for which the z-score was inactive: 0.671.

Regarding UGCCGUAGGACUCAUCGGUTT against Olfr151, the z-score is inactive: -0.907.

As to GGCUUAUGUCACCAACUUGTT against Pxdc1, the z-score was inactive: -0.533.

On to GGACCAAGCUGUGUACUCUTT against Olfr346, for which the z-score was inactive: -0.867.

Regarding GCCCAUCUUCCUAGUGUUUTT against Atp6v0b, the z-score is inactive: 1.43.

As to GGCAGCUAACAAGACAUGUTT against Vegfc, the z-score is inactive: 0.0932.

For the sequence GCGAACUGUCCAAAACCAATT against Nr5a2, the z-score was inactive: -0.709.

With CGUAUAUCCGGUCAGAAGATT against Cnot4, the z-score was inactive: 0.634.

For the sequence CCUAAAAGCCAUUAUCAAATT against Abce1, the z-score is inactive: -1.13.

GGUGCAAAACAUGUCUCAATT against Olfm1: the z-score is inactive: 0.76.

As for GGCCUGGAUAACAGAAAAUTT against Rbp7, the z-score is inactive: -0.418.

Regarding GGCAUCUCUAUACCUGUCUTT against Adrb3, the z-score is inactive: -1.79.

For the sequence GGUCGUCUGAUUUUUGAUATT against Atp1a1, the z-score is inactive: 0.391.

Take GCUAGCUGUUGUAAAAGAATT against Gm4841: the z-score was inactive: -0.507.

For GCCCUUGAAUAGAAGACAGTT against Gosr2, the z-score was inactive: 0.631.

As to GCAUGGAAUAAGUACAUUUTT against Slc1a1, the z-score was inactive: 0.472.

For GCCCAUUGAUCCGGAGUAATT against Dusp28, the z-score was inactive: 0.252.

As to GCAUUCAGAAUGAGCUGACTT against Nfasc, the z-score was inactive: -0.921.

On to GGCUCAUUCCUCUUCUUCCTT against Serhl, for which the z-score is active: -3.08.

GGAACACACCAUCAUCCAGTT against H2-Ea: the z-score is inactive: 1.29.

Turning to GGUACUCAAUGCAAGAAAUTT against Coq10b, the z-score is inactive: 0.264.

GGCAGUGGUGAUAUACCAATT against Acsbg1: the z-score is inactive: -0.0129.

On to GGUCACACUUUCUUUGGAATT against Tcf25, for which the z-score was inactive: 0.775.

With GGCCAUUGCCUCUUCUACUTT against Plekha4, the z-score was inactive: -0.225.

For GGUUGUUGUGACCUUCCUGTT against Bod1, the z-score is active: -2.65.

For the sequence GGAGAAAGAUGGCAUAAUGTT against Slitrk6, the z-score was inactive: -0.595.

For the sequence CGCCCAGUGCAAUUUUUUCTT against Asap2, the z-score is inactive: -0.313.

Consider GCUUUCAGAUGGCUUUAAUTT against Psmc6, for which the z-score was inactive: -1.94.

For “CCCACGAUACUCAAUUUUCTT against 1700006J14Rik”, the z-score is inactive: -0.646.

For the sequence CCAUGUGUAAAGGGAGAAATT against Nxph2, the z-score was inactive: 0.893.

As for GCACUUUCCUAAUGGUCCUTT against Ifnab, the z-score is inactive: 0.104.

CCACAUUCUAGGUAUCUUGTT against Mapk3: the z-score is inactive: -0.499.

Take CCUAGUUGAAAAUUGGGAATT against Fuca2: the z-score is inactive: 0.354.

As to GCCGGAAGAUAAGGCUCAUTT against Gap43, the z-score was active: -2.2.

Regarding GGCUUAGCCUUUUCUUCCCTT against Notum, the z-score was inactive: -1.1.

Consider GGAAGUCAAUCAGAGUCUGTT against Chd1, for which the z-score was inactive: -0.936.

Regarding GGAAGAGGACUGCUUAUCCTT against Zfp772, the z-score is inactive: -1.87.

As to GUGUAGCUCUUCACAGUUATT against Fgf2os, the z-score was inactive: 0.673.

On to GGUUCAGCAAGAAGAAUCATT against Cyp3a13, for which the z-score is inactive: -0.668.

On to GGGUUUUUUUAACUGCUUUTT against Efemp1, for which the z-score is inactive: 0.162.

For GGGUUAACUUUUGUUCAAUTT against Gm6288, the z-score is inactive: 0.761.

Take GCUUACCUAUUAGCAGCUUTT against Atg16l1: the z-score is inactive: -1.49.

As for GGAUGAAGACGGAUUCCUCTT against Map1lc3a, the z-score is inactive: 0.384.

As for GCGACAGGACUUCAUUACUTT against Pou1f1, the z-score was inactive: 0.125.

On to GGUCCAGGUGAUAAAUAUATT against Aknad1, for which the z-score is inactive: 0.867.

For GAGAUCUUACCCAGCAGAUTT against Ifna4, the z-score was inactive: 0.675.

Turning to GUGAAGAGAAGGCUUGAGUTT against Ifna11, the z-score was inactive: 0.236.

With GGAGUUGUUGUGCUUUUAATT against Tmem45a, the z-score was active: 3.02.

As for GGUCUUCUCCCAAAUAAAUTT against Lcmt1, the z-score was inactive: -0.565.

Consider GGCUUUGGAAGUAUCUUUGTT against Pcsk7, for which the z-score was inactive: 0.267.

For GGUGAUGUAUGUUACGCUGTT against Srsf1, the z-score is inactive: -0.00436.

In the case of CCUGGACCCAUUAUUUGCCTT against Slc35a2, the z-score is inactive: 0.44.

Turning to GCCUAUUCUAUCGAUAACCTT against Cdh23, the z-score is inactive: 0.801.

For GCACAUGCACUUCUCACUUTT against Olfr223, the z-score was inactive: 0.816.

On to CCCAUCUCCUUAAAGUCAATT against Ripk3, for which the z-score is inactive: 1.32.

In the case of GGGAAAUGUUGAACAUAUCTT against Lap3, the z-score was inactive: 0.235.

Take GGGCGAACACUCCAAAGAATT against Tiprl: the z-score was inactive: 1.24.

On to “GCGAUGUAAUUACAAACCUTT against 9130019P16Rik”, for which the z-score is inactive: -0.0706.

In the case of GGCUGUGAAGAAAUACCACTT against Lcp2, the z-score was inactive: 0.372.

Consider GGAUAUUCUUUCCAGGCUATT against Fanca, for which the z-score was inactive: -0.0387.

Regarding CGUGCAUGCAAAUUAUGUATT against Golga7b, the z-score is inactive: -0.612.

With GCACAGGAAACAAUUGAUATT against Stxbp4, the z-score was inactive: -0.0598.

Regarding CCCAUGCUUGGAAUAAUUATT against Man1a, the z-score was inactive: 0.00246.

For the sequence CCACGAUCAAGGAGAAUGUTT against Apoa4, the z-score is inactive: -1.54.

GGAGUUAGGCUGUAGAAGUTT against Dpysl2: the z-score was inactive: 0.303.

For CCAUGGAGAAUCAUGACAGTT against Slfn1, the z-score is inactive: 0.864.

As for GCCUUUUUAAAGCUCAAGUTT against Zfp975, the z-score was inactive: -0.553.

Regarding CCAGUUUGUACAUAGUGUATT against Rab35, the z-score was inactive: -1.05.

Consider GCUAGUGAAAAAGAUCGACTT against Kcnn2, for which the z-score was inactive: -0.101.

Consider GGCUAUGGCAGUUAUCAAATT against Eif2s1, for which the z-score is inactive: -0.799.

In the case of CCUUUCCUAACUUGAUCACTT against Cbr2, the z-score was inactive: 0.443.

For the sequence GGCCAAGCAUCCUGAACAATT against B3galt6, the z-score is inactive: 0.0266.

With CUUUUACACCAUCAUGACGTT against Mrgpra5, the z-score was active: -2.06.

On to GUAACUGUCACCCAGAGAATT against Defb10, for which the z-score is inactive: -0.339.

Turning to GGGAAAUUAAAUCUGUUCATT against Mfsd9, the z-score was inactive: 0.818.

Regarding GGAGGAGACUCCUAAGAAGTT against Cc2d1a, the z-score is inactive: -1.54.

Consider GGUUUGUUUCCUGACAUUATT against Sh3gl3, for which the z-score is inactive: -1.48.

Consider GGACUUUGACCCGUACUAUTT against Scn8a, for which the z-score was inactive: 0.951.

GGUUCUCCUGAUUUGUUUATT against Sdhc: the z-score was inactive: 0.421.

As to GGAUGCUCACCUUCAAAUUTT against Il2, the z-score is active: 2.33.

On to GGUAAAUCAUGUUUACUCUTT against Det1, for which the z-score is inactive: -1.19.

With CGUGGUCUAUAAUGAUAUUTT against Smim19, the z-score was inactive: -0.13.

As for GGCUAAAUGGGAAACCUGGTT against Cdkn2b, the z-score is inactive: -0.0359.

Regarding CCCUCAUUCUCUAGCGUGATT against H2-K1, the z-score is inactive: -1.07.

Consider GGCAACUUCAAGUCCAUAUTT against Pnma3, for which the z-score is active: 3.18.

With CCACUCUGGCGAACCCAUUTT against Fam241a, the z-score was inactive: -0.489.

For GCCCAAACUGCUCUACUGCTT against Fgf1, the z-score was inactive: 0.919.
